In paper PMC5896174:
No constants are given. Whether binding was seen depends on the method and setting. In cells and extracts the contact can be indirect. Some binding calls cover weakened binding; strength is not graded here.

Amino acid sequences for entries named in this document (tags omitted).
UniProt Q99684: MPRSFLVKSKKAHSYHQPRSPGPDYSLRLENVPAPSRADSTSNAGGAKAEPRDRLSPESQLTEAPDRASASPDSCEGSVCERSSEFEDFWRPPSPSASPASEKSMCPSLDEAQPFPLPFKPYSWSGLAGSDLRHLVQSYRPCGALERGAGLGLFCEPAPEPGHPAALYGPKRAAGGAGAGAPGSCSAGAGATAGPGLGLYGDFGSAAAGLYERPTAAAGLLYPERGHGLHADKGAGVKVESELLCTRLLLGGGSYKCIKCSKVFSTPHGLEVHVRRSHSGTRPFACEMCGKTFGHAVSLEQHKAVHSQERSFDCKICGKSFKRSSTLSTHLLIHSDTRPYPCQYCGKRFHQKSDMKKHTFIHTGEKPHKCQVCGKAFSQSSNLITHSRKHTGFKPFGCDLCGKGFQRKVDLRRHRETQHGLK
UniProt Q9UKL0: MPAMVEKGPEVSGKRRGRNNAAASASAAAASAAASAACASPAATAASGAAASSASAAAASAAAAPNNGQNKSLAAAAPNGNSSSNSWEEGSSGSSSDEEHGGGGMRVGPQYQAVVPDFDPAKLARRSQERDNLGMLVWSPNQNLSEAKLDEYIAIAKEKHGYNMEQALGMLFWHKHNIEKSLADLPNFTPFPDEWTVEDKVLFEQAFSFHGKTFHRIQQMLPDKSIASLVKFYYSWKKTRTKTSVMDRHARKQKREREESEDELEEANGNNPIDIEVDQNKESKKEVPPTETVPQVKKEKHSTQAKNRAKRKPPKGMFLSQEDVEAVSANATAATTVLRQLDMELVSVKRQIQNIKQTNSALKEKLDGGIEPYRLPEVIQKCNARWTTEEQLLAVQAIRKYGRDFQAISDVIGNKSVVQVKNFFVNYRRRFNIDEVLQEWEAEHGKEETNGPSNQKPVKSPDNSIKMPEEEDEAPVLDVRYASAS

What was measured:
[1] = biological target: GFI1, endogenous (human (endogenous in THP1)) (UniProt Q99684); experiment: condition: only cells treated with 250 nM OG86 for 48 hr; co-IP; endogenous proteins; lysates of THP1 AML cells treated with 250 nM OG86 for 48 hr, immunoprecipitated with anti-GFI1, western blot
[2] = biological target: GFI1, endogenous (human (endogenous in THP1)) (UniProt Q99684); experiment: co-IP; endogenous proteins; THP1 AML cell lysates (cytoplasmic and nuclear fractions) immunoprecipitated with anti-GFI1, anti-LSD1 or anti-RCOR1, western blot; cells treated with DMSO vehicle or 250 nM OG86 for 48 hr (reversible inhibitors GSK354, PDD31777, PDD32116 also tested)

RCOR1 (CoREST), endogenous (from UniProt Q9UKL0 1-485)
binding [1]: no binding
binding [2]: binds
